Results on one substance are retold here after article PMC2816692, “Structural and Biochemical Characterization of SrcA, a Multi-Cargo Type III Secretion Chaperone in Salmonella Required for Pathogenic Association with a Host” (PLoS Pathogens, 2010).

These are yes or no findings as the source states them, for the method shown. Binding can be weak; no strength is given.

The target of the assay is His-tagged SsaNΔ89 (SPI-2 T3SS ATPase SsaN, residues Q90-E433) (Salmonella enterica serovar Typhimurium) (UniProt P74857). In words: SEC; 320 µl SrcA (0.1 mg/ml) mixed with 40.8 µl SsaN (8.84 mg/ml) at room temperature for 2 h; Superdex S200 10/300GL; peaks verified by anti-His western blot and LC-MS/MS; both purified. A general note: SEC sorts molecules by how far they enter the pores of the column.

With “His-tagged SrcA (SsrB-regulated chaperone A, STM2138) (from UniProt Q8ZNP3)”, the binding entry is “binds”.
